Results deposited as PubChem BioAssay AID1259308 (NCATS, 2017).

Screen: 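Knock-downs that increase output of a recombinant reporter protein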 (primary screen)
System: human HEK293 embryonic kidney cells stably expressing firefly luciferase (HEK-CMV-Luc2-Hygro)
Reagent: single siRNA against human genes, 0.8 pmol siRNA per well
Duration: 72 h
Measured: 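Reporter luminescence and viable-cell signal on separate replicate plates, given as percent of non-targeting control and median/MAD z-scores, plus per-cell luciferase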
Direction: total luciferase, z-score and total luciferase, % of control: higher = more reporter protein produced; luciferase per cell, z-score: higher = more reporter output per viable cell; viable cells, % of control: higher = more viable cells
Rule for the call: 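Active when the median/MAD z-score for overall luciferase is greater than 3; a gene was taken forward for validation with new siRNAs if at least two of its three siRNAs passed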
Calls: active = raised luciferase; inactive = no rise
In all, the deposit lists about 59,000 reagents; this is an unselected part. Of all reagents, about 1,510 (2.6%) were called active. 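Calls use total luciferase alone and ignore viability, so some active siRNAs may act by altering cell number.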 A number with no mark means an inactive call. The numbers tell different reagents against one gene apart.

| Target gene | reagent | total luciferase, z-score | total luciferase, % of control | luciferase per cell, z-score | viable cells, % of control |
| --- | --- | --- | --- | --- | --- |
| MIER3 (MIER family member 3) | 1 | -0.368 | 74.6 | -0.576 | 97 |
| MIER3 (MIER family member 3) | 2 | 0.000963 | 81.9 | -0.178 | 95.9 |
| MIER3 (MIER family member 3) | 3 | -0.0276 | 81.3 | -0.715 | 110 |
| ERBIN (erbb2 interacting protein) | 1 | 1.81 | 118 | 1.92 | 79.4 |
| ERBIN (erbb2 interacting protein) | 2 | -0.762 | 66.7 | -1 | 97 |
| ERBIN (erbb2 interacting protein) | 3 | -0.559 | 70.8 | -0.146 | 82.2 |
| SH3GLB1 (SH3 domain containing GRB2 like, endophilin B1) | 1 | 2.73 | 136 | 1.1 | 114 |
| SH3GLB1 (SH3 domain containing GRB2 like, endophilin B1) | 2 | -1.05 | 61.1 | -0.924 | 87 |
| SH3GLB1 (SH3 domain containing GRB2 like, endophilin B1) | 3 | 1.75 | 117 | 1.19 | 95.4 |
| LINC02911 (long independently transcribed non-coding RNA 2911) | 1 | -0.135 | 79.2 | -0.502 | 101 |
| LINC02911 (long independently transcribed non-coding RNA 2911) | 2 | 2.16 | 125 | 3.84 | 50.7 |
| LINC02911 (long independently transcribed non-coding RNA 2911) | 3 | -0.113 | 79.6 | -0.0198 | 89.5 |
| PRICKLE2 (prickle planar cell polarity protein 2) | 1 | 0.793 | 97.7 | 0.795 | 88.5 |
| PRICKLE2 (prickle planar cell polarity protein 2) | 2 | 0.909 | 100 | 0.723 | 92.3 |
| PRICKLE2 (prickle planar cell polarity protein 2) | 3 | -0.963 | 62.7 | 0.587 | 60.1 |
| SEPTIN7P14 (septin 7 pseudogene 14) | 1 | 0.0288 | 82.5 | 0.153 | 88.5 |
| SEPTIN7P14 (septin 7 pseudogene 14) | 2 | -1.17 | 58.6 | -0.312 | 71 |
| SEPTIN7P14 (septin 7 pseudogene 14) | 3 | -0.874 | 64.5 | -0.712 | 86.9 |
| OTOP3 (otopetrin 3) | 1 | 0.337 | 88.6 | 0.195 | 94 |
| OTOP3 (otopetrin 3) | 2 | -0.751 | 66.9 | -0.908 | 95 |
| OTOP3 (otopetrin 3) | 3 | 1.07 | 103 | 0.335 | 106 |
| DNTTIP2 (deoxynucleotidyltransferase terminal interacting protein 2) | 1 | -0.627 | 69.4 | -0.0859 | 79.3 |
| DNTTIP2 (deoxynucleotidyltransferase terminal interacting protein 2) | 2 | -1.52 | 51.6 | -1.2 | 79.1 |
| DNTTIP2 (deoxynucleotidyltransferase terminal interacting protein 2) | 3 | -3.1 | 20.3 | -3.85 | 62.5 |
| PIF1 (PIF1 5'-to-3' DNA helicase) | 1 | 1.37 | 109 | 1.02 | 93.3 |
| PIF1 (PIF1 5'-to-3' DNA helicase) | 2 | 0.372 | 89.3 | -0.336 | 109 |
| PIF1 (PIF1 5'-to-3' DNA helicase) | 3 | -0.255 | 76.8 | -0.858 | 108 |
| CPN2 (carboxypeptidase N subunit 2) | 1 | -0.374 | 74.4 | -0.649 | 98.7 |
| CPN2 (carboxypeptidase N subunit 2) | 2 | 0.11 | 84.1 | 0.135 | 90.7 |
| CPN2 (carboxypeptidase N subunit 2) | 3 | -0.86 | 64.8 | -1.62 | 111 |
| MADD (MAP kinase activating death domain) | 1 | -0.0685 | 80.5 | 0.049 | 88.8 |
| MADD (MAP kinase activating death domain) | 2 | -0.181 | 78.3 | -0.577 | 102 |
| MADD (MAP kinase activating death domain) | 3 | -0.258 | 76.7 | -0.212 | 90.7 |
| NCF2 (neutrophil cytosolic factor 2) | 1 | 0.665 | 95.1 | 0.52 | 92.7 |
| NCF2 (neutrophil cytosolic factor 2) | 2 | 0.61 | 94 | 1.15 | 77.6 |
| NCF2 (neutrophil cytosolic factor 2) | 3 | 0.6 | 93.8 | 0.99 | 80.8 |
| GRSF1 (G-rich RNA sequence binding factor 1) | 1 | 0.944 | 101 | 0.467 | 99.5 |
| GRSF1 (G-rich RNA sequence binding factor 1) | 2 | 2.39 | 129 | 4.47 | 44.5 |
| GRSF1 (G-rich RNA sequence binding factor 1) | 3 | -1.2 | 58.1 | -1.22 | 89.5 |
| RPL15P11 (ribosomal protein L15 pseudogene 11) | 1 | -2.98 | 22.6 | -2.25 | 45.5 |
| RPL15P11 (ribosomal protein L15 pseudogene 11) | 2 | -0.263 | 76.7 | 1.22 | 62.1 |
| RPL15P11 (ribosomal protein L15 pseudogene 11) | 3 | -2.24 | 37.3 | -2.04 | 71.3 |
| MMGT1 (membrane magnesium transporter 1) | 1 | -0.61 | 69.7 | -1.06 | 103 |
| MMGT1 (membrane magnesium transporter 1) | 2 | 0.0168 | 82.2 | -0.176 | 96.2 |
| MMGT1 (membrane magnesium transporter 1) | 3 | -0.975 | 62.5 | -1.83 | 113 |
| CDH12 (cadherin 12) | 1 | -0.656 | 68.8 | -1.16 | 104 |
| CDH12 (cadherin 12) | 2 | 0.493 | 91.7 | -0.103 | 105 |
| CDH12 (cadherin 12) | 3 | -1.52 | 51.8 | -1.87 | 94.7 |
| REX1BD (required for excision 1-B domain containing) | 1 | -0.674 | 68.5 | -1.02 | 100 |
| REX1BD (required for excision 1-B domain containing) | 2 | 0.709 | 96 | 0.248 | 100 |
| REX1BD (required for excision 1-B domain containing) | 3 | 0.431 | 90.5 | 1.47 | 68.6 |
| AACS (acetoacetyl-CoA synthetase) | 1 | 1.01 | 102 | 0.768 | 93.1 |
| AACS (acetoacetyl-CoA synthetase) | 2 | -0.0186 | 81.5 | -0.182 | 95.5 |
| AACS (acetoacetyl-CoA synthetase) | 3 | -1.99 | 42.4 | -1.43 | 69 |
| KXD1 (KxDL motif containing 1) | 1 | -0.232 | 77.3 | 0.286 | 80.1 |
| KXD1 (KxDL motif containing 1) | 2 | -1.26 | 56.9 | -0.561 | 73.7 |
| KXD1 (KxDL motif containing 1) | 3 | -0.825 | 65.5 | -0.983 | 94.8 |
